Experimental data from PubChem BioAssay AID248 (DTP/NCI, 2004).
The list is a part of this screen's results and no random one: it is rich in T/C values a quarter to a half above the control, in often repeated tests (any T/C) and in doses without a T/C. Other doses and runs of a compound stand elsewhere. T/C is the treated group as % of the vehicle group. Some doses have a count of surviving animals in place of a T/C: the source files T/C as zero there, which appears to mark a toxic dose or a test without result, not a measured value. Some doses without a T/C left all or most animals alive at the check, yet need not have been tolerated: survival well below the control is almost never listed, so the zero probably covers shortened survival too. Survivors were counted at the toxicity check, usually on the fifth day, unless a day is given; later deaths do not show. Schedule codes are those of the source, read here as Q, the interval in days (D) or hours (H), X, the number of doses. Some structures stand for samples that the source files as different forms (salt, stereo form or complex); doses refer to the form tested. Some entries were tested several times; the values are given in rising order. Some schedules carry Z or #; the key to these is not given. For survival time, the PubChem record calls one and a half times the control and up active, and a quarter to a half above the control has no call in these data; cut-offs in other NCI protocols can differ. Some T/C values carry the count of animals alive at the toxicity check (mostly the fifth day); without a count, all were alive then.

Tested on: L1210 leukemia ip in BDF1 mice, survival T/C
Assay: NCI In Vivo Anticancer Drug Screen. Data for tumor model L1210 Leukemia (intraperitoneal) in B6D2F1 (BDF1) mice
Conditions: T/C endpoint: mean survival time, higher T/C = longer survival
[1] = dose: 400.0 mg/kg/injection, schedule: Q01DX001 (ip), vehicle: saline
[2] = dose: 400.0 mg/kg/injection, schedule: Q01DX009 (ip), vehicle: saline
[3] = dose: 200.0 mg/kg/injection, schedule: Q01DX009 (ip), vehicle: saline
[4] = dose: 100.0 mg/kg/injection, schedule: Q04DX003 (ip), vehicle: saline with Tween-80
[5] = dose: 200.0 mg/kg/injection, schedule: Q04DX003 (ip), vehicle: saline with Tween-80
[6] = dose: 400.0 mg/kg/injection, schedule: Q04DX003 (ip), vehicle: saline with Tween-80

CC(=O)OC1C(OCc2ccccc2)OC(COCc2ccccc2)C(OC2OC(COCc3ccccc3)C(OCc3ccccc3)C(OCc3ccccc3)C2OCc2ccccc2)C1OCc1ccccc1 (configuration not stated)
survivor count (dose: 25.0 mg/kg/injection, schedule: Q04DX003 (ip), vehicle: Klucel (hydroxypropylcellulose) (HPC)): 6 of 6 | survivor count (dose: 42.5 mg/kg/injection, schedule: Q01DX009 (ip), vehicle: Klucel (hydroxypropylcellulose) (HPC)): 6 of 6 | survivor count (dose: 100.0 mg/kg/injection, schedule: Q01DX001 (ip), vehicle: other): 6 of 6 | survivor count (dose: 170.0 mg/kg/injection, schedule: Q01DX009 (ip), vehicle: Klucel (hydroxypropylcellulose) (HPC)): 6 of 6 | survivor count (dose: 200.0 mg/kg/injection, schedule: Q01DX001 (ip), vehicle: other): 6 of 6 | survivor count (dose: 400.0 mg/kg/injection, schedule: Q01DX001 (ip), vehicle: other): 6 of 6

c1ccncc1
survivor count (dose: 25.0 mg/kg/injection, schedule: Q01DX009 (ip), vehicle: alcohol): 2 of 3 | survivor count (dose: 50.0 mg/kg/injection, schedule: Q01DX009 (ip), vehicle: alcohol): 3 of 3 | survivor count (dose: 100.0 mg/kg/injection, schedule: Q01DX009 (ip), vehicle: alcohol): 3 of 6 and 3 of 3 | survivor count (dose: 200.0 mg/kg/injection, schedule: Q01DX009 (ip), vehicle: Klucel (hydroxypropylcellulose) (HPC)): 6 of 6 | survivor count (dose: 200.0 mg/kg/injection, schedule: Q01DX009 (ip), vehicle: alcohol): 1 of 6 | survivor count (dose: 400.0 mg/kg/injection, schedule: Q01DX009 (ip), vehicle: Klucel (hydroxypropylcellulose) (HPC)): 3 of 6 | survivor count (dose: 400.0 mg/kg/injection, schedule: Q01DX009 (ip), vehicle: alcohol): 0 of 6

CN=C(Nc1ccccc1C)SC
survivor count [1]: 2 of 6

O=C(CCC(=O)Nc1ccc(C2=NCCN2)cc1)Nc1ccc(C2=NCCN2)cc1
T/C (dose: 8.0 mg/kg/injection, schedule: Q01DX Z (ip), vehicle: carboxymethylcellulose (CMC)): 130 and 148 % of control | T/C (dose: 32.0 mg/kg/injection, schedule: Q01DX Z (ip), vehicle: carboxymethylcellulose (CMC)): 139 % of control | T/C (dose: 84.0 mg/kg/injection, schedule: Q01DX001 (ip), vehicle: carboxymethylcellulose (CMC)): 126 % of control | T/C (dose: 84.0 mg/kg/injection, schedule: Q01DX001 (ip), vehicle: other): 131 % of control | T/C (dose: 128.0 mg/kg/injection, schedule: Q01DX001 (ip), vehicle: other): 134 % of control | survivor count (dose: 192.0 mg/kg/injection, schedule: Q01DX001 (ip), vehicle: carboxymethylcellulose (CMC)): 0 of 10 | survivor count (dose: 192.0 mg/kg/injection, schedule: Q01DX001 (ip), vehicle: other): 0 of 10

CC(=O)c1cccc(OCC(O)CN(C(C)C)C(C)C)c1 (configuration not stated)
survivor count [2]: 0 of 6

Cc1[nH]cnc1C(c1ccccc1)c1ccccc1
survivor count (dose: 400.0 mg/kg/injection, schedule: Q01DX001 (ip), vehicle: saline with Tween-80): 0 of 6

ClC1=C(Cl)[C@@]2(Cl)[C@H]3[C@H]4C[C@H]([C@@H]5O[C@H]45)[C@H]3[C@@]1(Cl)C2(Cl)Cl
survivor count (dose: 16.0 mg/kg/injection, schedule: Q01DX009 (ip), vehicle: acetone): 1 of 6 | survivor count (dose: 32.0 mg/kg/injection, schedule: Q01DX009 (ip), vehicle: acetone): 0 of 6 | survivor count (dose: 50.0 mg/kg/injection, schedule: Q01DX001 (ip), vehicle: acetone): 2 of 6 | survivor count (dose: 64.0 mg/kg/injection, schedule: Q01DX009 (ip), vehicle: acetone): 0 of 6 | survivor count (dose: 100.0 mg/kg/injection, schedule: Q01DX001 (ip), vehicle: acetone): 2 of 6 | survivor count (dose: 128.0 mg/kg/injection, schedule: Q01DX009 (ip), vehicle: acetone): 0 of 6 | survivor count (dose: 200.0 mg/kg/injection, schedule: Q01DX001 (ip), vehicle: acetone): 0 of 6

COC(C(=O)O)c1ccc(Br)cc1 (configuration not stated)
survivor count (dose: 300.0 mg/kg/injection, schedule: Q01DX001 (ip), vehicle: acetone): 3 of 6

Clc1cc2n[nH]nc2c(SCc2ccccc2)n1
survivor count (dose: 400.0 mg/kg/injection, schedule: Q01DX005 (ip), vehicle: saline with Tween-80): 2 of 4

CCOC(C)c1ccccc1 (configuration not stated)
survivor count (dose: 50.0 mg/kg/injection, schedule: Q01DX001 (ip), vehicle: carboxymethylcellulose (CMC)): 4 of 4 | survivor count (dose: 100.0 mg/kg/injection, schedule: Q01DX001 (ip), vehicle: carboxymethylcellulose (CMC)): 4 of 4 | survivor count (dose: 400.0 mg/kg/injection, schedule: Q01DX001 (ip), vehicle: carboxymethylcellulose (CMC)): 4 of 4

Cc1c(-c2ccccc2Br)nc2ccccc2c1C(=O)O
survivor count [1]: 3 of 6

Nc1ncc(-c2ccc(CNc3ccc(C(=O)NC(CC(=O)O)CC(=O)O)cc3)cc2)c(N)n1
T/C (dose: 25.0 mg/kg/injection, schedule: Q01DX009 (ip), vehicle: saline): 138 % of control | T/C (dose: 30.0 mg/kg/injection, schedule: Q01DX009 (ip), vehicle: saline): 140 % of control | T/C (dose: 33.0 mg/kg/injection, schedule: Q01DX009 (ip), vehicle: saline): 144 % of control | T/C (dose: 50.0 mg/kg/injection, schedule: Q01DX009 (ip), vehicle: saline): 131 % of control | T/C (dose: 100.0 mg/kg/injection, schedule: Q01DX001 (ip), vehicle: saline): 125 % of control | survivor count (dose: 100.0 mg/kg/injection, schedule: Q01DX009 (ip), vehicle: saline): 6 of 6 | T/C (dose: 150.0 mg/kg/injection, schedule: Q01DX001 (ip), vehicle: saline): 125 and 138 % of control [5 of 6 alive] | survivor count [3]: 0 of 6 | T/C (dose: 225.0 mg/kg/injection, schedule: Q01DX001 (ip), vehicle: saline): 128 % of control [4 of 6 alive] | survivor count (dose: 300.0 mg/kg/injection, schedule: Q01DX001 (ip), vehicle: saline): 1 of 6

O=C(O)C(O)C(O)C(O)CO.[Zn+2] (configuration not stated)
survivor count [4]: 6 of 6 | survivor count [5]: 1 of 6 | survivor count [6]: 0 of 6

CCOc1ccccc1N1C(=O)C=CC1=O
survivor count (dose: 50.0 mg/kg/injection, schedule: Q04DX002 (ip), vehicle: saline with Tween-80): 0 of 3 | survivor count (dose: 100.0 mg/kg/injection, schedule: Q04DX002 (ip), vehicle: saline with Tween-80): 0 of 3 | survivor count (dose: 200.0 mg/kg/injection, schedule: Q04DX002 (ip), vehicle: saline with Tween-80): 0 of 3 | survivor count (dose: 400.0 mg/kg/injection, schedule: Q04DX002 (ip), vehicle: saline with Tween-80): 0 of 3

Cc1ccc([N+](=O)[O-])cc1NC(=O)Sc1ccccc1O
survivor count [4]: 6 of 6

CCCCCCCC/C=C\CCCCCCCCOCC(O)CO (configuration not stated)
survivor count (dose: 200.0 mg/kg/injection, schedule: Q01DX009 (ip), vehicle: acetone): 2 of 6 | survivor count (dose: 400.0 mg/kg/injection, schedule: Q04DX003 (ip), vehicle: acetone): 4 of 6

CC(C)(C)NC[Si](C)(C)C
survivor count [3]: 0 of 6 | survivor count [2]: 0 of 6

CC(C)Cn1c[n+](Cc2ccc([N+](=O)[O-])cc2)c2c1C(=O)c1ccccc1C2=O
survivor count [4]: 0 of 6 | survivor count [5]: 0 of 6 | survivor count [6]: 0 of 6

CC(C)COC(C[N+](=O)[O-])C(Cl)(Cl)Cl (configuration not stated)
survivor count (dose: 400.0 mg/kg/injection, schedule: Q01DX009 (ip), vehicle: saline with Tween-80): 0 of 6

COc1ccc2c3c1OC1C(O)C=CC4C(C2)N(C)CCC341 (configuration not stated)
survivor count (dose: 200.0 mg/kg/injection, schedule: Q01DX001 (ip), vehicle: saline): 3 of 6 | survivor count [1]: 0 of 6

CNC(=Nc1ccc(NC(=O)c2ccc(C(=O)Nc3ccc(N=C(NC)c4ccccc4)cc3)cc2)cc1)c1ccccc1
survivor count (dose: 30.0 mg/kg/injection, schedule: Q01DX Z (ip), vehicle: other): 0 of 6 | survivor count (dose: 60.0 mg/kg/injection, schedule: Q01DX Z (ip), vehicle: other): 0 of 6 | survivor count (dose: 120.0 mg/kg/injection, schedule: Q01DX Z (ip), vehicle: other): 0 of 6
